Experimental data published in publication PMC10275759.
These are yes or no findings as the source states them, for the method shown. In cells and extracts the contact can be indirect. Some entries that bind do so weakly or less than the wild type.

Target: T1, microfibril associated protein 5 (MFAP5) (mouse (endogenous in ImdyCAFs)) (UniProt Q9QZJ6)
T1 sequence: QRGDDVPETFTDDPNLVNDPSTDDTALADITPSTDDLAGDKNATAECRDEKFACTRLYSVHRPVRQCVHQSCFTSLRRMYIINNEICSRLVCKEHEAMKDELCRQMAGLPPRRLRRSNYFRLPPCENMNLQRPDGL
Experiment: co-IP; immunoprecipitation from ImdyCAFs followed by western blot; which protein was precipitated is not told

B1: Reticulocalbin 2 (RCN2) (protein, UniProt Q8BP92 26-320)
chain: SKAEELHYPQGEHRADYDREALLGVQEDVDEYVKLGHEEQQRRLQSIIKKIDSDSDGFLTENELSQWIQMSFKHYAMQEAKQQFVEYDKNSDGAVTWDEYNIQMYDRVIDFDENTALDDTEEGSFRQLHLKDKKRFEKANQDSGPGLSLEEFIAFEHPEEVDYMTEFVIQEALEEHDKNGDGFVSLEEFLGDYRRDPTANEDPEWILVEKDRFVNDYDKDNDGRLDPQELLSWVVPNNQGIAQEEALHLIDEMDLNSDKKLSEEEILENQDLFLTSEATDYGRQLHDDYFYHDEL
With B1 the binding was “binds”.
